# Experimental data from PubChem BioAssay AID2685 (National Center for Advancing Translational Sciences (NCATS), 2010).
# This is one part of the list. Further columns of the screen follow, without active or inactive calls. Compounds called inactive in the main read-out are mostly missing here. Words in brackets tell the shape of the fitted curve; partial curves, single points and poor fits give uncertain potencies.
# Assay: qHTS Assay for Lipid Storage Modulators in Drosophila S3 Cells;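 for cell number change: cells counted by Cell Tracker Red CMTPX staining in the red channel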
# Conditions: BODIPY lipid droplet fluorescence, 18-24 h; for cell number change: measured here: cell count max response, cells fed with added oleic acid
# Method in brief: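 Drosophila S3 cells got compounds at several concentrations plus oleic acid (400 uM solution). Laser-scanning cytometry with 488 nm excitation read lipid droplets at 500-530 nm and cells at 575-640 nm. Percent activity was relative to 20 uM Triacsin C.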
# [1] = measured here: lipid fluorescence (Fed channel) AC50, cells fed with added oleic acid
# [2] = measured here: cell number channel AC50, cells fed with added oleic acid
Structure (SMILES),cell number change [%],AC50 [1],AC50 [2]
COc1ccc(CCC(=O)Nc2ccc(Cn3ccnc3)cc2)cc1,9.8,,
CCOc1ccc(NC(=O)COC(=O)c2c(OC)cccc2OC)cc1,-13,"0.82 µM [rising, partial curve, poor fit]",
CCCOc1ccc2[nH]cc(C(=O)O)c(=O)c2c1,35.9,,"23.1 µM [rising, single point]"
COc1ccccc1C(=O)NCCC(=O)N(C)CC(=O)Nc1ccc(N2CCOCC2)cc1,26.2,"11.6 µM [rising, partial curve]",
CCOc1ccc(CNC(=O)C(CC)n2nc(C)n3c(cc4occc43)c2=O)cc1OC (stereo not given),66.3,,"18.4 µM [rising, single point]"
COC(=O)Nc1nc(-c2cc(Cl)ccc2Cl)cs1,,,"6.51 µM [rising, partial curve, poor fit]"
O=C1c2ccccc2C(=O)N1Cc1ccc2c(c1)OCO2,10.8,"0.164 µM [rising, full curve]",
O=C1c2ccccc2C(O)N1Cc1ccccc1 (stereo not given),,,"0.103 µM [falling, full curve, poor fit]"
CCc1nnc(NC(=O)c2ccc(S(=O)(=O)N3CCCC3)cc2)s1,-33.3,,"7.31 µM [falling, partial curve, poor fit]"
COc1ccc(N2CCc3c(C)nc4c(OC)cccc4c32)cc1,1.03,"0.731 µM [rising, partial curve, poor fit]",
CC(C)c1cccc(C(C)C)c1NC(=O)COC(=O)C1=COCCO1,-43.3,"29.1 µM [falling, single point]","29.1 µM [falling, single point]"
CCOc1cccc(CN2CCC(Oc3ccc(C(=O)N4CCCC4)cc3)CC2)c1,20,,"4.11 µM [rising, single point]"
Cc1cc(C(=O)NC2CC(C)(C)Cc3c2cnn3-c2ccccc2)n[nH]1 (stereo not given),20.8,,"0.0731 µM [rising, full curve, poor fit]"
CC(C)(C)OC(=O)CNC(=O)c1[nH]cnc1C(=O)NC1CCN(C(=O)OC(C)(C)C)CC1,-3.89,"0.58 µM [falling, partial curve, poor fit]",
Cc1nn(-c2ccccc2)c(Cl)c1CN(C(=O)CCl)c1cccc2ccccc12,-2.28,"29.1 µM [falling, single point]",
CC1CCCCN1C(=O)COC(=O)c1n[nH]c2ccccc12 (stereo not given),32.3,"3.66 µM [rising, full curve]","29.1 µM [rising, single point]"
Cc1ccc(N(CC(=O)NCC2CCCO2)C(=O)CCC(=O)Nc2nccs2)cc1C (stereo not given),6.76,"2.59 µM [falling, full curve, poor fit]",
CCNC(=O)/C(=C/c1ccc2c(c1)OCO2)NC(=O)c1ccc(Br)cc1,-0.996,"18.4 µM [rising, partial curve, poor fit]",
COc1cc(S(=O)(=O)NCCCn2ccnc2)ccc1F,12.6,"5.8 µM [rising, full curve]",
COc1ccccc1-c1nnc(SCC(=O)NCc2c(C)c(Cl)cc(C(C)C)c2O)o1,-54.1,"29.1 µM [falling, single point]","29.1 µM [falling, single point]"

Structure (SMILES),cell number change [%],AC50 [1],AC50 [2]
CN(C)S(=O)(=O)N1CCN(C(=O)c2cccc(Br)c2)CC1,-18.7,"3.66 µM [falling, single point]","0.00517 µM [falling, full curve, poor fit]"
Cc1cc(Cl)nc(Cl)c1C(=O)N1CCOCC1,-16.8,,
Cc1ccc(-n2nc3cc(Cl)c(NC(=O)c4ccco4)cc3n2)cc1,12.1,"6.51 µM [rising, partial curve, poor fit]",
CC(c1ccco1)N(C(=O)COc1ccc(Cl)cc1)c1ccccn1 (stereo not given),6.25,,
CC1CCCCN1CC(=O)c1c(N)n(Cc2ccccc2)c(=O)n(C)c1=O (stereo not given),-49.5,"1.46 µM [falling, partial curve]","6.51 µM [rising, single point]"
O=C(NCCc1ccccc1F)C1CC(O)CN1C(=O)Nc1ccccc1 (stereo not given),14,"29.1 µM [rising, single point]",
N=C1C(c2ccccc2)=C(O)CN1c1cccc(S(=O)(=O)Nc2cccc(C(F)(F)F)c2)c1,44.1,"0.731 µM [rising, partial curve, poor fit]","0.92 µM [rising, full curve]"
CC(C)CCn1c(N)c(S(=O)(=O)c2cccs2)c2nc3ccccc3nc21,-129,"29.1 µM [falling, single point]","29.1 µM [falling, single point]"
CCOC(=O)C1=C(C)NC(=O)NC1c1ccc(N(C)C)cc1 (stereo not given),-8.82,"6.51 µM [falling, single point]","6.51 µM [falling, single point]"
COc1cccc(/C=C/C(=O)NCc2ccc(S(N)(=O)=O)cc2)c1,18.9,"3.66 µM [falling, single point]",
CCOc1c(/C=C(\C#N)C(N)=O)c2ccccc2n1CC,24.1,"3.66 µM [falling, single point]","4.61 µM [rising, full curve, poor fit]"
COC(=O)C1=C(C)Nc2nnnn2C1c1ccc(Cl)cc1Cl (stereo not given),,,"6.51 µM [rising, single point]"
CCOC(=O)c1cccc(N2C(=O)C3C(C2=O)C2C=CC3C23CC3)c1 (stereo not given),16.9,"13 µM [falling, partial curve]",
COc1cc(CNCc2ccccc2)cc(Cl)c1OC,-17.8,"29.1 µM [falling, single point]",
CCOC(=O)CNC(=S)N(CCCN1CCN(C)CC1)Cc1cccs1,51.1,"6.51 µM [rising, single point]","29.1 µM [rising, single point]"
Cc1cc(CN2CCCC(C(=O)Nc3cccc(-n4cccn4)c3)C2)cc(C)c1O (stereo not given),5.61,,"6.51 µM [rising, single point]"
CC(=O)c1ccc(N2CCN(c3ccc(S(=O)(=O)NCCCN(C)C)cc3[N+](=O)[O-])CC2)cc1,-41.5,"23.1 µM [falling, partial curve]",
O=C(Oc1ccccc1C(=O)Oc1ccccc1)c1ccco1,,"6.51 µM [rising, single point]",
CCCn1ncc(CN2CCC(Oc3ccc(C(=O)N4CCCC4)cc3)CC2)c1C,,"0.731 µM [rising, single point]",
Cc1cccc(OCC(=O)NCC(c2cccs2)N2CCOCC2)c1 (stereo not given),,"6.51 µM [falling, single point]","0.103 µM [falling, full curve, poor fit]"

Structure (SMILES),cell number change [%],AC50 [1],AC50 [2]
Cc1ccc(CNS(=O)(=O)c2ccc(F)c(F)c2)n1C,1.32,,
O=C(CN1C(=O)c2ccccc2S1(=O)=O)NCc1c(F)cccc1F,-29.3,,
CCOC(=O)C1CCN(C(=O)COC(=O)c2cc([N+](=O)[O-])ccc2N2CCOCC2)CC1,1.68,,
O=C1C(Cl)=C(NC(=O)c2ccccc2)C(=O)C(Cl)=C1NC(=O)c1ccccc1,-65.6,"2.06 µM [falling, full curve]","2.31 µM [falling, full curve]"
COc1ccccc1N1CCN(S(=O)(=O)c2c(C)[nH]c(=O)[nH]c2=O)CC1,,"0.164 µM [rising, full curve, poor fit]",
COc1ccc(C=O)cc1CN1C(=O)c2ccccc2C1=O,19.3,"0.58 µM [rising, single point]",
CCN1CCN(C(=O)c2cc(-c3cccnc3)nc3ccc(Br)cc23)CC1,-5.68,,
O=C1CC(N2CCOCC2)C(=O)N1CCN1C(=O)CC(N2CCOCC2)C1=O (stereo not given),-7.63,,
COC(=O)c1c(C(=O)OC)c(-c2ccc(Cl)c(Cl)c2)n2c1CCC2,-11.6,,"3.66 µM [falling, partial curve, poor fit]"
O=C(NC(=S)Nc1cccnc1Cl)c1ccco1,-1.17,,"2.91 µM [rising, partial curve]"
COCCN(CCOC)S(=O)(=O)c1ccc(C(=O)Nc2nnc(COC)o2)cc1,-35.4,"0.116 µM [falling, partial curve, poor fit]","1.64 µM [falling, full curve, poor fit]"
Cc1ccc(Nc2nc3c([nH]2)c(=O)[nH]c(=O)n3C)cc1,,"4.11 µM [rising, single point]",
CC(Sc1nnc(N)s1)C(=O)NC1CCCCC1C (stereo not given),30.6,,"18.4 µM [rising, single point]"
Cc1nnn(C23CC4CC(CC(CC(=O)Nc5cccc(F)c5)(C4)C2)C3)n1,49.4,"6.51 µM [rising, single point]","6.51 µM [rising, single point]"
Cc1ccc(N2C(=O)CC(n3ccnc3)C2=O)cc1C (stereo not given),42.8,,"29.1 µM [rising, single point]"
Cc1oc2c(C)c3oc(=O)c4c(c3cc2c1C)CCCC4,-2.56,"5.17 µM [rising, full curve]",
O=C(CSCc1ccc(F)cc1)N1CCN(c2ccccc2)CC1,10.9,"0.82 µM [rising, full curve, poor fit]",
Cc1csc(SCC(=O)c2cc(C)n(Cc3cccs3)c2C)n1,-25.5,"32.6 µM [falling, single point]",
Cc1cc(NC(=O)C(C)SCC(=O)Nc2ccccc2N2CCCCC2)no1 (stereo not given),6.5,,

# An excerpt from above, limited to AC50 [2] and cell number change [%]:
Structure (SMILES)	AC50 [2]	cell number change [%]
Cc1ccc(CNS(=O)(=O)c2ccc(F)c(F)c2)n1C		1.32
O=C(CN1C(=O)c2ccccc2S1(=O)=O)NCc1c(F)cccc1F		-29.3
CCOC(=O)C1CCN(C(=O)COC(=O)c2cc([N+](=O)[O-])ccc2N2CCOCC2)CC1		1.68
O=C1C(Cl)=C(NC(=O)c2ccccc2)C(=O)C(Cl)=C1NC(=O)c1ccccc1	2.31 µM [falling, full curve]	-65.6

# A draw from above in order of length of the SMILES, largest number first:
Structure (SMILES),cell number change [%],AC50 [1],AC50 [2]
CCOC(=O)C1CCN(C(=O)COC(=O)c2cc([N+](=O)[O-])ccc2N2CCOCC2)CC1,1.68,,
Cc1nnn(C23CC4CC(CC(CC(=O)Nc5cccc(F)c5)(C4)C2)C3)n1,49.4,"6.51 µM [rising, single point]","6.51 µM [rising, single point]"
Cc1cc(NC(=O)C(C)SCC(=O)Nc2ccccc2N2CCCCC2)no1 (stereo not given),6.5,,
